Measured data: PubChem BioAssay AID1259308 (NCATS, 2017)

Test: 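Knock-downs that increase output of a recombinant reporter protein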 (primary screen)
Cells: human HEK293 embryonic kidney cells stably expressing firefly luciferase (HEK-CMV-Luc2-Hygro)
Knock-down reagent: single siRNA against human genes, 0.8 pmol siRNA per well
Duration: 72 h
Detection: 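Reporter luminescence and viable-cell signal on separate replicate plates, given as percent of non-targeting control and median/MAD z-scores, plus per-cell luciferase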
Reading the numbers: total luciferase, z-score and total luciferase, % of control: higher = more reporter protein produced; luciferase per cell, z-score: higher = more reporter output per viable cell; viable cells, % of control: higher = more viable cells
Rule for the call: 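An siRNA counts as active if its total luciferase robust z-score exceeds 3; genes with two or more such siRNAs out of three were retested with fresh siRNAs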
Calls: active = raised luciferase; inactive = no rise
In all, the deposit lists about 59,000 reagents; shown is an unselected part. About 1,510 of them (2.6%) count as active. 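Calls use total luciferase alone and ignore viability, so some active siRNAs may act by altering cell number.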 Reagents against one gene are numbered here. Reagent sequences are not shown.

no.	target	siRNA no.	total luciferase, z-score	total luciferase, % of control	luciferase per cell, z-score	viable cells, % of control	activity call
1	LIN7A	1	-1.87	44.7	-1.61	76.5	inactive
2	LIN7A	2	-0.659	68.8	-1.2	105	inactive
3	LIN7A	3	-0.136	79.2	-0.929	113	inactive
4	GTF2IRD1P1	1	-0.944	63.1	-1.42	102	inactive
5	GTF2IRD1P1	2	-0.784	66.3	-0.383	81.9	inactive
6	GTF2IRD1P1	3	-0.474	72.5	-0.666	96.5	inactive
7	GARS1	1	0.728	96.4	0.737	88.7	inactive
8	GARS1	2	2.07	123	1.26	98.8	inactive
9	GARS1	3	-2.14	39.3	-1.72	69.2	inactive
10	RASD1	1	-0.344	75	-0.91	107	inactive
11	RASD1	2	-0.7	68	-1.39	109	inactive
12	RASD1	3	0.129	84.4	0.519	82.3	inactive
13	TFF1	1	-2.58	30.5	-2.05	58.4	inactive
14	TFF1	2	0.826	98.3	0.44	97.9	inactive
15	TFF1	3	0.294	87.7	0.0937	95.6	inactive
16	BEST2	1	0.555	92.9	0.394	93.6	inactive
17	BEST2	2	-0.101	79.9	-0.597	104	inactive
18	BEST2	3	1.18	105	0.397	106	inactive
19	SAMD4B	1	0.16	85.1	0.568	81.9	inactive
20	SAMD4B	2	0.575	93.3	0.684	87.1	inactive
21	SAMD4B	3	1.86	119	1.9	80.6	inactive
22	ARHGAP26	1	-0.342	75.1	-0.758	102	inactive
23	ARHGAP26	2	-0.0691	80.5	-0.567	104	inactive
24	ARHGAP26	3	0.696	95.7	0.127	103	inactive
25	ARF5	1	1.37	109	0.41	109	inactive
26	ARF5	2	0.57	93.2	0.0804	102	inactive
27	ARF5	3	0.0726	83.3	-0.926	119	inactive
28	NIPAL3	1	0.731	96.4	1.21	78.3	inactive
29	NIPAL3	2	0.74	96.6	0.263	101	inactive
30	NIPAL3	3	-0.586	70.2	-0.612	92.2	inactive
31	CARMIL2	1	1.45	111	1.81	76.8	inactive
32	CARMIL2	2	-0.186	78.2	0.379	79.1	inactive
33	CARMIL2	3	0.879	99.4	1.01	85.2	inactive
34	GSDMB	1	1.37	109	0.725	101	inactive
35	GSDMB	2	-0.055	80.8	-0.367	99.4	inactive
36	GSDMB	3	1.15	105	0.644	98.9	inactive
37	CER1	1	-0.341	75.1	-0.807	104	inactive
38	CER1	2	0.07	83.3	0.384	84.1	inactive
39	CER1	3	0.775	97.3	0.205	103	inactive
40	EPHX1	1	-1.48	52.4	-1.39	84.5	inactive
41	EPHX1	2	-0.534	71.3	-0.591	93	inactive
42	EPHX1	3	0.252	86.9	-0.639	115	inactive
43	DAPK3	1	0.0702	83.3	0.0763	91.2	inactive
44	DAPK3	2	0.507	92	0.54	89.1	inactive
45	DAPK3	3	-1.1	60.1	-1.01	87.7	inactive
46	KCNK6	1	0.0825	83.5	0.739	76.8	inactive
47	KCNK6	2	2.76	137	2.55	78.1	inactive
48	KCNK6	3	-3	22.1	-4.66	84.4	inactive
49	AHSG	1	-0.581	70.3	-1.02	103	inactive
50	AHSG	2	-0.357	74.8	-0.413	93.2	inactive
51	AHSG	3	0.812	98	1.14	81	inactive
52	CYBB	1	-0.719	67.6	-0.885	95.3	inactive
53	CYBB	2	2.97	141	2.08	90.9	inactive
54	CYBB	3	0.299	87.8	-0.233	104	inactive
55	RBBP4	1	1.06	103	1.73	72.9	inactive
56	RBBP4	2	0.367	89.2	1.52	66.7	inactive
57	RBBP4	3	0.748	96.8	0.00763	108	inactive
58	CXorf66	1	0.877	99.3	0.624	94.2	inactive
59	CXorf66	2	1.62	114	0.876	101	inactive
60	CXorf66	3	0.397	89.8	-0.248	107	inactive
61	IKZF2	1	-0.447	73	1.49	55.1	inactive
62	IKZF2	2	-0.0084	81.7	-0.155	95.1	inactive
63	IKZF2	3	-1.45	53.1	-1.56	89.6	inactive
64	ACSS2	1	-0.515	71.6	-0.531	92.1	inactive
65	ACSS2	2	1.08	103	1.08	86.9	inactive
66	ACSS2	3	-0.783	66.3	-0.976	95.8	inactive
67	IFNA21	1	-0.406	73.8	0.00845	82.3	inactive
68	IFNA21	2	1.35	109	1.13	90.2	inactive
69	IFNA21	3	1.51	112	2.34	67.6	inactive
70	CPNE2	1	1.6	114	1.71	81.1	inactive
71	CPNE2	2	1.03	102	1.31	80.9	inactive
72	CPNE2	3	0.108	84	1.54	62.6	inactive
73	LCNL1	1	0.516	92.2	1.59	67.8	inactive
74	LCNL1	2	2.39	129	3.16	62.9	inactive
75	LCNL1	3	2.29	127	1.38	99.1	inactive
